Read-outs that look alike come from different tables or passages of the source. No constants are given. Whether binding was seen depends on the method and setting. For some assays here: In cells and extracts the contact can be indirect. Some entries that bind do so weakly or less than the wild type. For some assays here: Tags and fused reporters may be left off the sequences shown.
How the values were obtained:
[1] = target: MBP-tagged HPV18 E7 C-terminal domain (residues 54–105) (human papillomavirus 18 (HPV18)) (UniProt P06788); assay: ITC; 25 °C, VP-ITC; PTP domain titrated into MBP-tagged HPV18 E7 (0.2 mM into 10 μM in Fig 1B); 20 mM Tris-HCl pH 7.5, 100 mM NaCl, 10 mM β-mercaptoethanol; one-to-one model; triplicate; both purified
[2] = target: T1, Flag-tagged LATS1 (UniProt O95835); assay: co-IP; 293T cells transiently expressing wild-type or SQA mutant PTPN14 with Flag-tagged YAP or LATS1; coimmunoprecipitation and immunoblotting
T1 sequence: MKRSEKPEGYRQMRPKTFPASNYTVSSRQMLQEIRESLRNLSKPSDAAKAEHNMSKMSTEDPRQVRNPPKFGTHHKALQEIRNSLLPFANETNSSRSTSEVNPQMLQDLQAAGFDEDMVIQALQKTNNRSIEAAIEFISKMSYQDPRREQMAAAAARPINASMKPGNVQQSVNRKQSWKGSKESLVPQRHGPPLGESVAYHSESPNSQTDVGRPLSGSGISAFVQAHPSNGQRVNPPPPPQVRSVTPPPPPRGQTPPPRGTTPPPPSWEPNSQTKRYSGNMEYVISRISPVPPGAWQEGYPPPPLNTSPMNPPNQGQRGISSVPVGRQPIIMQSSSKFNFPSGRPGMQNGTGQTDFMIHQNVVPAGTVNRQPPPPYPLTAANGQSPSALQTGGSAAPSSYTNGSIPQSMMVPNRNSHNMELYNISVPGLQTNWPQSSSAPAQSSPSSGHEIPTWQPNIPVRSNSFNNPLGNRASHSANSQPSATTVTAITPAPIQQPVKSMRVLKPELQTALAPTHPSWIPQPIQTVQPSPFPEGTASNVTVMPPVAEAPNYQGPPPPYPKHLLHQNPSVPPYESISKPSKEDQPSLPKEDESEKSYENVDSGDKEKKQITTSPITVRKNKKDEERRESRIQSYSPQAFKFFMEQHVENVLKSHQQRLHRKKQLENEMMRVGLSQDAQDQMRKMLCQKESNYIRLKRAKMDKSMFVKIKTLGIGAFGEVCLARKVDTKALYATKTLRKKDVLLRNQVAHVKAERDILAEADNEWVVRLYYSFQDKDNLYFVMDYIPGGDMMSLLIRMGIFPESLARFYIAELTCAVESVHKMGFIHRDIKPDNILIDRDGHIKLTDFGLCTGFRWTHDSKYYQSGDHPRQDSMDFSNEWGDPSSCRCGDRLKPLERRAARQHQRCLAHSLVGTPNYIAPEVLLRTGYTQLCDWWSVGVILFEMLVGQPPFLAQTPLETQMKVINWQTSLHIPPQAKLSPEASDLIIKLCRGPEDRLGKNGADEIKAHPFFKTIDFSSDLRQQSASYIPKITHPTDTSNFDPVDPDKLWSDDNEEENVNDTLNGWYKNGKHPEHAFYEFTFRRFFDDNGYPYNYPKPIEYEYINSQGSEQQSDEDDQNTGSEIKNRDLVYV

The chains behind the UniProt entries cited, without tags or fusion partners. Residues count along the entry.
UniProt P06788, residues 54-105: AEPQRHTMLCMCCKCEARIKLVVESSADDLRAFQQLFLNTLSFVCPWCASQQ
UniProt P46937: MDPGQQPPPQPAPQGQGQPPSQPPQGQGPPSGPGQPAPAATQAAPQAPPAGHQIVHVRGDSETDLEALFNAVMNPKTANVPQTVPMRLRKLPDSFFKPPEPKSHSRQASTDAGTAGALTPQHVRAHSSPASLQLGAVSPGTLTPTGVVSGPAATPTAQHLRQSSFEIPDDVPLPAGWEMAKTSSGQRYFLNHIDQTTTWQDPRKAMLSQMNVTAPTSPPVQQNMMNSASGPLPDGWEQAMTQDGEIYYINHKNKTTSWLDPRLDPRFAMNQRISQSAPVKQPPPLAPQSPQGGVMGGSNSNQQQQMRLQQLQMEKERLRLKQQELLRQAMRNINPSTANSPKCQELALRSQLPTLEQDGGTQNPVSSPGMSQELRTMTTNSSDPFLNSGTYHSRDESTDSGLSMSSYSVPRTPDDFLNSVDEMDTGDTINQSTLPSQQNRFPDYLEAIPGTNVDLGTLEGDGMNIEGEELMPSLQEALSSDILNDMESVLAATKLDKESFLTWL
UniProt P26045, residues 628-913: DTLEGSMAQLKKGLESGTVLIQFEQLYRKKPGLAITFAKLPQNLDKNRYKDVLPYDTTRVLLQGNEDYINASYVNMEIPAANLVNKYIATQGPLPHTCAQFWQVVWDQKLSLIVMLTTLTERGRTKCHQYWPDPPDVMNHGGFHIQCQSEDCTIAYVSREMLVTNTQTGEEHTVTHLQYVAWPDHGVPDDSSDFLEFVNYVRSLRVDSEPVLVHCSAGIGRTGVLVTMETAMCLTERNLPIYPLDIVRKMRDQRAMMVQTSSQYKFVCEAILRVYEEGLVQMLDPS
UniProt P23469, residues 107-398: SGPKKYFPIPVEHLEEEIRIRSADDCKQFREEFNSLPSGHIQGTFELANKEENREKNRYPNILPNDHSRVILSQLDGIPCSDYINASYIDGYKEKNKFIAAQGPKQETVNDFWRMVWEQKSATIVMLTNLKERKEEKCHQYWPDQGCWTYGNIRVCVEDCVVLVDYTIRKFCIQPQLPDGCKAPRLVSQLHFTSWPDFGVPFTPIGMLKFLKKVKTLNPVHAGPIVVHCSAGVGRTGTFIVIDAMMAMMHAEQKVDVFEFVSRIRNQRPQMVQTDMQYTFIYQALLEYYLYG
UniProt Q13332, residues 1367-1948: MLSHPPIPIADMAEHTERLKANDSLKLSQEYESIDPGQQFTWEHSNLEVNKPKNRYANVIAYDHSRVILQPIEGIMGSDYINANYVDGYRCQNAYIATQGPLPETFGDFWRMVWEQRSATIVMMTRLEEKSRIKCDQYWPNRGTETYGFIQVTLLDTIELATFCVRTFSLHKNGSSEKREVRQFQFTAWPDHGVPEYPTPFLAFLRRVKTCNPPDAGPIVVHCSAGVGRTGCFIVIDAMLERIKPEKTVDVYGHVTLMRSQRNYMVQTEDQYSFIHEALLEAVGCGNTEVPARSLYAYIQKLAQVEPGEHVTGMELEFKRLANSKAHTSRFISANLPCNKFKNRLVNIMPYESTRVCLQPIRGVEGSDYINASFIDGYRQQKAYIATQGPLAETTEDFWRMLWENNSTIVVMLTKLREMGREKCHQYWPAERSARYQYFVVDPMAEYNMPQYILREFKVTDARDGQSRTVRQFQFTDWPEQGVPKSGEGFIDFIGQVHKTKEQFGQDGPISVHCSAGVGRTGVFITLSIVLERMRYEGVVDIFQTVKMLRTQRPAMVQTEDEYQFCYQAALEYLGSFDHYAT

[3] = target: Flag-tagged YAP (UniProt P46937); assay: as above
[4] = target: MBP-tagged HPV18 E7 C-terminal domain (residues 54–105) (human papillomavirus 18 (HPV18)) (UniProt P06788); assay: ITC; 25 °C, VP-ITC; PTP domain titrated into MBP-tagged HPV18 E7 (0.2 mM into 10 μM in Fig 1B); 20 mM Tris-HCl pH 7.5, 100 mM NaCl, 10 mM β-mercaptoethanol; one-to-one model; triplicate; both purified; remark: listed apart in the source

“PTP domain of PTPN3 (residues 628–913) (from UniProt P26045 628-913) (domain or fragment)” was tested, and the binding [1] was “no binding”.

In the case of “PTP domain of PTPε (residues 107–398) (from UniProt P23469 107-398) (domain or fragment)”, the binding [1] is reported as “no binding”.

With “PTP domain of PTPσ (residues 1367–1948) (from UniProt Q13332 1367-1948) (domain or fragment)” the binding [1] was “no binding”.

For “PTPN14 construct containing F1044S∙G1055Q∙E1095A mutations (cellular) (from UniProt Q15678 1-1187)”, the binding [2] was “binds”.

B1: wild-type PTPN14 (pcDNA3-V5-PTPN14-wild type) (protein, UniProt Q15678 1-1187)
chain: MPFGLKLRRTRRYNVLSKNCFVTRIRLLDSNVIECTLSVESTGQECLEAVAQRLELRETHYFGLWFLSKSQQARWVELEKPLKKHLDKFANEPLLFFGVMFYVPNVSWLQQEATRYQYYLQVKKDVLEGRLRCTLDQVIRLAGLAVQADFGDYNQFDSQDFLREYVLFPMDLALEEAVLEELTQKVAQEHKAHSGILPAEAELMYINEVERLDGFGQEIFPVKDNHGNCVHLGIFFMGIFVRNRIGRQAVIYRWNDMGNITHNKSTILVELINKEETALFHTDDIENAKYISRLFATRHKFYKQNKICTEQSNSPPPIRRQPTWSRSSLPRQQPYILPPVHVQCGEHYSETHTSQDSIFHGNEEALYCNSHNSLDLNYLNGTVTNGSVCSVHSVNSLNCSQSFIQASPVSSNLSIPGSDIMRADYIPSHRHSAIIVPSYRPTPDYETVMRQMKRGILHTDSQSQSLRNLNIINTHAYNQPEDLVYSQPEMRERHPYTVPYGPQGVYSNKLVSPSDQRNPKNNVVPSKPGASAISHTVSTPELANMQLQGSHNYSTAHMLKNYLFRPPPPYPRPRPATSTPDLASHRHKYVSGSSPDLVTRKVQLSVKTFQEDSSPVVHQSLQEVSEPLTATKHHGTVNKRHSLEVMNSMVRGMEAMTLKSLHLPMARRNTLREQGPPEEGSGSHEVPQLPQYHHKKTFSDATMLIHSSESEEEEEEAPESVPQIPMLREKMEYSAQLQAALARIPNKPPPEYPGPRKSVSNGALRQDQASLPPAMARARVLRHGPAKAISMSRTDPPAVNGASLGPSISEPDLTSVKERVKKEPVKERPVSEMFSLEDSIIEREMMIRNLEKQKMAGLEAQKRPLMLAALNGLSVARVSGREENRVDATRVPMDERFRTLKKKLEEGMVFTEYEQIPKKKANGIFSTAALPENAERSRIREVVPYEENRVELIPTKENNTGYINASHIKVVVGGAEWHYIATQGPLPHTCHDFWQMVWEQGVNVIAMVTAEEEGGRTKSHRYWPKLGSKHSSATYGKFKVTTKFRTDSVCYATTGLKVKHLLSGQERTVWHLQYTDWPDHGCPEDVQGFLSYLEEIQSVRRHTNSMLEGTKNRHPPIVVHCSAGVGRTGVLILSELMIYCLEHNEKVEVPMMLRLLREQRMFMIQTIAQYKFVYQVLIQFLQNSRLI
In the case of B1, the binding [3] is reported as “binds” and the binding [2] is reported as “binds”.

B2: PTP domain of PTPN14 containing the F1044S∙G1055Q∙E1095A mutation (domain or fragment, UniProt Q15678 886-1187)
chain: VDATRVPMDERFRTLKKKLEEGMVFTEYEQIPKKKANGIFSTAALPENAERSRIREVVPYEENRVELIPTKENNTGYINASHIKVVVGGAEWHYIATQGPLPHTCHDFWQMVWEQGVNVIAMVTAEEEGGRTKSHRYWPKLGSKHSSATYGKFKVTTKSRTDSVCYATTQLKVKHLLSGQERTVWHLQYTDWPDHGCPEDVQGFLSYLEAIQSVRRHTNSMLEGTKNRHPPIVVHCSAGVGRTGVLILSELMIYCLEHNEKVEVPMMLRLLREQRMFMIQTIAQYKFVYQVLIQFLQNSRLI
B2 was tested, and the binding [4] was “no binding”.

B3: PTP domain of PTP1B (residues 1–321) (domain or fragment, UniProt P18031 1-321)
chain: MEMEKEFEQIDKSGSWAAIYQDIRHEASDFPCRVAKLPKNKNRNRYRDVSPFDHSRIKLHQEDNDYINASLIKMEEAQRSYILTQGPLPNTCGHFWEMVWEQKSRGVVMLNRVMEKGSLKCAQYWPQKEEKEMIFEDTNLKLTLISEDIKSYYTVRQLELENLTTQETREILHFHYTTWPDFGVPESPASFLNFLFKVRESGSLSPEHGPVVVHCSAGIGRSGTFCLADTCLLLMDKRKDPSSVDIKKVLLEMRKFRMGLIQTADQLRFSYLAVIEGAKFIMGDSSVQDQWKELSHEDLEPPPEHIPPPPRPPKRILEPHN
With B3 the binding [4] was “no binding”.

Source: article PMC6668832, “Structural basis for recognition of the tumor suppressor protein PTPN14 by the oncoprotein E7 of human papillomavirus” (PLoS Biology, 2019)
